Experimental data taken from the supplement of paper PMC10849652.
The other results are listed elsewhere or left out.

Amino acid sequences for entries named in this document (tags omitted). A change or cut given only in a name is not applied to a line headed by its entry.
UniProt Q9Y2E8: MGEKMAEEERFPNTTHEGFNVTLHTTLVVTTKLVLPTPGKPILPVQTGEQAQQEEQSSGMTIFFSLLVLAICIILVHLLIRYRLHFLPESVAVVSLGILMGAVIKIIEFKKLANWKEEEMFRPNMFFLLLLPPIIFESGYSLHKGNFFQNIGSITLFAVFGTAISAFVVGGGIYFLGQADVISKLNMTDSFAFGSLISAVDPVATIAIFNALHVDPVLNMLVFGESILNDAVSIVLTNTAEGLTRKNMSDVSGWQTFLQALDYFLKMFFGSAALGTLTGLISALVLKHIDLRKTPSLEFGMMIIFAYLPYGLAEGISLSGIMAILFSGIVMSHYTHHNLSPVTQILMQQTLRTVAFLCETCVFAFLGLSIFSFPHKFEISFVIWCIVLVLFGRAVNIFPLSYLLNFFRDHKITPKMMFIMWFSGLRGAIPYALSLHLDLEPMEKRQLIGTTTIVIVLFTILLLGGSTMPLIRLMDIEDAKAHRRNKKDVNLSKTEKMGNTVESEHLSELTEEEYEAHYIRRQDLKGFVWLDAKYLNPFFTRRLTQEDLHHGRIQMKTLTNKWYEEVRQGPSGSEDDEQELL
UniProt P17405: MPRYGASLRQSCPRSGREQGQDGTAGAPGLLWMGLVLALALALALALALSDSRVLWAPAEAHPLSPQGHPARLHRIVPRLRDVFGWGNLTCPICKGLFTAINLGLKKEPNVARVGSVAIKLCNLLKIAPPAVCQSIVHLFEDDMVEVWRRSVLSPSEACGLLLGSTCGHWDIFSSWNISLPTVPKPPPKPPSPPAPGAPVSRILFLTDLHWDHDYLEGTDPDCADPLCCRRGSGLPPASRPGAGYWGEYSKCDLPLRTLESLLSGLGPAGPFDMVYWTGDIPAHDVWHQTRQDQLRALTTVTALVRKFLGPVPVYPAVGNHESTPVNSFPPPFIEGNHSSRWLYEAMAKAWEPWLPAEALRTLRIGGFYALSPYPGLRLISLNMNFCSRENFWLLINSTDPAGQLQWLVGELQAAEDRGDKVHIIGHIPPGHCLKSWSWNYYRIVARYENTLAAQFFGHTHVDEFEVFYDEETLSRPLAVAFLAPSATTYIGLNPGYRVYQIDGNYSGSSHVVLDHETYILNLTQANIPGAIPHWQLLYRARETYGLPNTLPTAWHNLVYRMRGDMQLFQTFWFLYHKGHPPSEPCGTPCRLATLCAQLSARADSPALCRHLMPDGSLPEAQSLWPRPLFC
UniProt Q13425: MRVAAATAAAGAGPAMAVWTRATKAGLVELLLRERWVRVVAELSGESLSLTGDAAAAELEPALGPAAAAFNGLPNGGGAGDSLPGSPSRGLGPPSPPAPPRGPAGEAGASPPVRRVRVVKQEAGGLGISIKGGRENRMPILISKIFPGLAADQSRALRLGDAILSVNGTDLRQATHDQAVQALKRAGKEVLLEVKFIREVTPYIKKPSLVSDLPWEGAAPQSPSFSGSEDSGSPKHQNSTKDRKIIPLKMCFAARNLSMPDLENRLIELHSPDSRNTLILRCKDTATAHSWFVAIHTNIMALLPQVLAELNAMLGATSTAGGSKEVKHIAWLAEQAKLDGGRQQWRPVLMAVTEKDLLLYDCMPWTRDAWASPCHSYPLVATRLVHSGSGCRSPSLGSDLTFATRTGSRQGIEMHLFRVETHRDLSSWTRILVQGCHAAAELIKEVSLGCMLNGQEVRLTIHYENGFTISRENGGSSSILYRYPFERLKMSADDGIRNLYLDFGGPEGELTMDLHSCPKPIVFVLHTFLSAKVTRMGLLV
UniProt Q5VWJ9: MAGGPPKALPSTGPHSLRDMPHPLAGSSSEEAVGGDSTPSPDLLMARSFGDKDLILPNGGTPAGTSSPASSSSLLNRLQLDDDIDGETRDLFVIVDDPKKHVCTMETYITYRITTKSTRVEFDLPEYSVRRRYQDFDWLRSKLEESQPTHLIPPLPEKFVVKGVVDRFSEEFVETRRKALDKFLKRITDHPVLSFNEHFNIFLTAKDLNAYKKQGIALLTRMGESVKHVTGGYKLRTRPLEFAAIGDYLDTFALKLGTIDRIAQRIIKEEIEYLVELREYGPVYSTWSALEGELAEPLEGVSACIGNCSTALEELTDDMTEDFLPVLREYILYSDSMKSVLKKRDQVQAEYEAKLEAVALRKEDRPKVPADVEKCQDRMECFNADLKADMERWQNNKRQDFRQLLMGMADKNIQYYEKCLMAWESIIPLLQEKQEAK
UniProt Q12824, whole entry, looked up: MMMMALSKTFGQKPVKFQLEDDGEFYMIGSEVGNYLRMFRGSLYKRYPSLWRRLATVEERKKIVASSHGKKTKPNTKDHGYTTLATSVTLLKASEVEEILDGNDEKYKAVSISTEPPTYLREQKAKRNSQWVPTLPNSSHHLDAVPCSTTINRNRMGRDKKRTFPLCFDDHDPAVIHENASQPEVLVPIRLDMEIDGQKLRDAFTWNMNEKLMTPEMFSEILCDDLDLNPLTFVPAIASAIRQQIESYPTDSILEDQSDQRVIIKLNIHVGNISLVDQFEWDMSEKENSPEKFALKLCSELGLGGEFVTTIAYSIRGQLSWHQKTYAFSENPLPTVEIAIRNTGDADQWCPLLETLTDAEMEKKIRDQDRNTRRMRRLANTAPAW
UniProt Q9BT81: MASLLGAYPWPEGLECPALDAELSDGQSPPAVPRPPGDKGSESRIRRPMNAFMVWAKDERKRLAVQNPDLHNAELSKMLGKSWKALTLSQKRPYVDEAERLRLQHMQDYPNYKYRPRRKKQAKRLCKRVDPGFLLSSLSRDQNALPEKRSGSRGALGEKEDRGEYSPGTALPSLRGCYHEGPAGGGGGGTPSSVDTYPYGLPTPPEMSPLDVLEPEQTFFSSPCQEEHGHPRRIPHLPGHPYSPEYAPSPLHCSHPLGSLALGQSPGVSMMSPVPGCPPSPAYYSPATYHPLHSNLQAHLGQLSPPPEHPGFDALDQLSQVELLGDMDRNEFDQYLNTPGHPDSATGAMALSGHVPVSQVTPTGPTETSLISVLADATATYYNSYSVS
UniProt Q6J4K2: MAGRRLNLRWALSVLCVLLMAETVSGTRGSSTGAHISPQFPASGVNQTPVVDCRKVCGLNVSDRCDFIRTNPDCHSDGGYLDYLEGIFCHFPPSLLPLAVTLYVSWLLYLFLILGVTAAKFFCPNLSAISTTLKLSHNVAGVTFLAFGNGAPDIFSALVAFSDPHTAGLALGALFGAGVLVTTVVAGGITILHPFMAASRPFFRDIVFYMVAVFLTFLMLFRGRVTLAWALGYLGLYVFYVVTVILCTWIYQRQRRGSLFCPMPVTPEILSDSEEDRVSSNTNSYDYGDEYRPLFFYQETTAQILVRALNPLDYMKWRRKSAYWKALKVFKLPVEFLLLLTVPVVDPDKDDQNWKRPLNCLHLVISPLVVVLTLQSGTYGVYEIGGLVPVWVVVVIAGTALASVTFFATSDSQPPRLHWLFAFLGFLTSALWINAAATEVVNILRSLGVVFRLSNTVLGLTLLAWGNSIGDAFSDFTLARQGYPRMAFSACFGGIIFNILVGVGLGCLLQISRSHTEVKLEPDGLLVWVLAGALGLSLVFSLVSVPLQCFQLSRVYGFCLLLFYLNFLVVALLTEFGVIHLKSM
UniProt Q8WVI0: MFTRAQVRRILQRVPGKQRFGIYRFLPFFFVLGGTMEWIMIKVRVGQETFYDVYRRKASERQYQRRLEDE
UniProt Q5SQN1: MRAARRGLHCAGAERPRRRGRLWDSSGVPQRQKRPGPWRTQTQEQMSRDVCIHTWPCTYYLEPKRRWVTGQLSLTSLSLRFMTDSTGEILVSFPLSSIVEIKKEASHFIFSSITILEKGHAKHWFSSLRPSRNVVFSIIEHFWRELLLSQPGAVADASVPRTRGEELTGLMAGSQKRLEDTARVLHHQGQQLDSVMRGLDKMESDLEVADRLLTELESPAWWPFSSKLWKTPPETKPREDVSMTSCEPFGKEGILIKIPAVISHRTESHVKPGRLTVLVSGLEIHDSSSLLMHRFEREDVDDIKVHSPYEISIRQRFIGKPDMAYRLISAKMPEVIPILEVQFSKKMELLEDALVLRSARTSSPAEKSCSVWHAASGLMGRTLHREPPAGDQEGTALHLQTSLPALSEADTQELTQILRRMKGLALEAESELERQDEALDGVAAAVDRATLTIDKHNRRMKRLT
UniProt Q96E16: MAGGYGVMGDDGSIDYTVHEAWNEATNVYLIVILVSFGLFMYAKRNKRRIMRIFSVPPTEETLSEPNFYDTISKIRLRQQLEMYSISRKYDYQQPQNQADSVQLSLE
UniProt P53814: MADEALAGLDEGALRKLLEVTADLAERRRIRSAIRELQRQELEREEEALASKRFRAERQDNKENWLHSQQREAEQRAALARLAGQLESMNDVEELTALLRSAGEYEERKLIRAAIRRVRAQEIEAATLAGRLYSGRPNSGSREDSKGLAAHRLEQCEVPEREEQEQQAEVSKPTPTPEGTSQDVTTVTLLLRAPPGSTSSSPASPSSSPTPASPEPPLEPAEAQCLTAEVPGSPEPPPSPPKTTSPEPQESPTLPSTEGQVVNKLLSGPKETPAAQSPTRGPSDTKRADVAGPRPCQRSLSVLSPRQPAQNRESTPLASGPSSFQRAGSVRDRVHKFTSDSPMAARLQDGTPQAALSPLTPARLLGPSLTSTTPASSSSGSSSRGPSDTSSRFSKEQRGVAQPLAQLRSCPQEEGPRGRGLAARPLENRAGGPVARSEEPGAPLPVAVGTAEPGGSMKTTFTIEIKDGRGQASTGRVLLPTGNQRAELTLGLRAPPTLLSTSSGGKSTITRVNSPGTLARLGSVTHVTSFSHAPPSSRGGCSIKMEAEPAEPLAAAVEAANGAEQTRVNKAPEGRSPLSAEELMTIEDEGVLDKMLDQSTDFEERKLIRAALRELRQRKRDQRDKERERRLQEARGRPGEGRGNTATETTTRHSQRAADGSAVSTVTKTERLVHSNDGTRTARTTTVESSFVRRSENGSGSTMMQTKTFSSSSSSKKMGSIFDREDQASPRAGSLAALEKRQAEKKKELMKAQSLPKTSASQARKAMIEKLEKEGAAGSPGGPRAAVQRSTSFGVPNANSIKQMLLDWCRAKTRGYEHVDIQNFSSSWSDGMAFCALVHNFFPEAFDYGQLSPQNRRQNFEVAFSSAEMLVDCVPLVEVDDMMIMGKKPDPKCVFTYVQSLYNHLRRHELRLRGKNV
UniProt Q86T20: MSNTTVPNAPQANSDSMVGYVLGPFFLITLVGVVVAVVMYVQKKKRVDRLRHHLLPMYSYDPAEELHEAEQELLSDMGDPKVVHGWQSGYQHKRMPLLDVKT
UniProt P08294: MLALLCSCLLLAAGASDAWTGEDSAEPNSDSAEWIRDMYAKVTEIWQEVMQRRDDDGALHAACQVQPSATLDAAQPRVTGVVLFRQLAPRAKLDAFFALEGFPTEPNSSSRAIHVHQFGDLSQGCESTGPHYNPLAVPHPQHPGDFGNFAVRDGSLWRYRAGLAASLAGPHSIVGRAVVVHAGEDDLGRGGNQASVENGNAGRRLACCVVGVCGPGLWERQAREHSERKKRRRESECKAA
UniProt Q5VYV7: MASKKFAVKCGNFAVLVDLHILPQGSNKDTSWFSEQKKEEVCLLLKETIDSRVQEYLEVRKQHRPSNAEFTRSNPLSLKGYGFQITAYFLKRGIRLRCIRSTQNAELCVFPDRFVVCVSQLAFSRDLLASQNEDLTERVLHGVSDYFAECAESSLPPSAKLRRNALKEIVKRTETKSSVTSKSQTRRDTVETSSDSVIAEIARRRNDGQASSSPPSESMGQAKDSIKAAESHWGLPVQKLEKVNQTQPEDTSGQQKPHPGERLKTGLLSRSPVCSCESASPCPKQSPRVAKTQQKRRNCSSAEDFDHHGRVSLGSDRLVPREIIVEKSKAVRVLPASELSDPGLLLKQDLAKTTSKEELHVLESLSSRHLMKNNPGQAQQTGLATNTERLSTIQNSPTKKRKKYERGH
UniProt Q92925, whole entry, looked up: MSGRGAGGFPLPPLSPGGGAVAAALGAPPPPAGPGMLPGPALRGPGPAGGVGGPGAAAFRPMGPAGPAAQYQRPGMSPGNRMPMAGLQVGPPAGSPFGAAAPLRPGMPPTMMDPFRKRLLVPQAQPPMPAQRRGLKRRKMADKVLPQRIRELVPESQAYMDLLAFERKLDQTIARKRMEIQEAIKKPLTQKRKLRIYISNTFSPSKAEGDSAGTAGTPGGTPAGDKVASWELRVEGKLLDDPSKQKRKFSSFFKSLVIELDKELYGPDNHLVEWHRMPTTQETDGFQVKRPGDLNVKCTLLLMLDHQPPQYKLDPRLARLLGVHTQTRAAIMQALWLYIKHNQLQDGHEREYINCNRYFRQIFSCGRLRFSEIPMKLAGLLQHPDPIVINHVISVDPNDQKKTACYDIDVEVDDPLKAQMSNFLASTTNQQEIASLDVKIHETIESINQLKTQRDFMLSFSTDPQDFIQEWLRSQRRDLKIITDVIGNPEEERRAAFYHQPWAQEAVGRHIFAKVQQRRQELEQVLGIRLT
UniProt P03973: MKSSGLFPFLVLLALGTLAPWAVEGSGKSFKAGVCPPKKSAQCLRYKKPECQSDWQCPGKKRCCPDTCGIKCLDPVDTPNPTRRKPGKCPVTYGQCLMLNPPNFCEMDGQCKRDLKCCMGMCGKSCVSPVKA

What was measured:
Assay in all cases: log2 fold change, soluble protein after heating vs DMSO (PISA); higher = thermal stabilisation; K562 cells, 10 uM, 30 min; active = over 0.2 and 3.5 SD of the protein, either way, in both replicates (recomputed)
[1] = compound: CS(=O)(=O)c1ccc(-c2cnc(N)c(C(=O)Nc3ccccc3)n2)cc1
In short: (§1)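 Quantification of soluble protein used TMTpro 16plex LC-MS/MS, with channel sums equalised. Samples were the supernatant after 21,000xg for 90 min of pooled aliquots from K562 cells (2×10^6 cells/mL) treated with 10 μM compound for 30 min, heated for 3 min over 48°C-58°C, and extracted in PBS with 0.5% NP-40 at 4°C. Values, from duplicates, describe thermal stability against control samples on a log2 fold-change scale.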

[2] = compound: C[C@@H]1COCCN1C2=NC(=NC(=C2)C3(CC3)S(=O)(=O)C)C4=C5C=CNC5=CC=C4
In short: as §1

[3] = compound: C[C@H](C1=CC=C(C=C1)C(=O)NC2=C3C=CNC3=NC=C2)N
In short: as §1

duvelisib = compound: C[C@H](Nc1ncnc2nc[nH]c12)c1cc2cccc(Cl)c2c(=O)n1-c1ccccc1 [duvelisib]
In short: as §1

tozasertib = compound: Cc1cc(Nc2cc(N3CCN(C)CC3)nc(Sc3ccc(NC(=O)C4CC4)cc3)n2)n[nH]1 [tozasertib]
In short: as §1

[4] = compound: Cc1cc(SCc2sc(-c3ccc(C(F)(F)F)cc3)nc2C)ccc1OCC(=O)O
In short: as §1

bafetinib = compound: Cc1ccc(NC(=O)c2ccc(CN3CC[C@H](N(C)C)C3)c(C(F)(F)F)c2)cc1Nc1nccc(-c2cncnc2)n1 [bafetinib]
In short: as §1

nilotinib = compound: Cc1cn(-c2cc(NC(=O)c3ccc(C)c(Nc4nccc(-c5cccnc5)n4)c3)cc(C(F)(F)F)c2)cn1 [nilotinib]
In short: as §1

[5] = compound: Cc1nc(Nc2n[nH]c3c2CN(C(=O)N[C@H](CN(C)C)c2ccccc2)C3(C)C)c2sccc2n1
In short: as §1

dasatinib = compound: Cc1nc(Nc2ncc(C(=O)Nc3c(C)cccc3Cl)s2)cc(N2CCN(CCO)CC2)n1 [dasatinib]
In short: as §1

[6] = compound: Cc1ncc(-c2ccnc(Nc3ccc(S(C)(=O)=O)cc3)n2)n1C(C)C
In short: as §1

[7] = compound: Cn1cc(-c2ccc3c(c2)CCN3C(=O)Cc2cccc(C(F)(F)F)c2)c2c(N)ncnc21
In short: as §1

tipifarnib = compound: Cn1cncc1[C@@](N)(c1ccc(Cl)cc1)c1ccc2c(c1)c(-c1cccc(Cl)c1)cc(=O)n2C [tipifarnib]
In short: as §1

mubritinib = compound: FC(F)(F)c1ccc(/C=C/c2nc(COc3ccc(CCCCn4ccnn4)cc3)co2)cc1 [mubritinib]
In short: as §1

crizotinib = compound: C[C@@H](Oc1cc(-c2cnn(C3CCNCC3)c2)cnc1N)c1c(Cl)ccc(F)c1Cl [crizotinib]
In short: as §1

gandotinib = compound: Cc1cc(Nc2cc(CN3CCOCC3)c3nc(C)c(Cc4ccc(Cl)cc4F)n3n2)n[nH]1 [gandotinib]
In short: as §1

doramapimod = compound: Cc1ccc(-n2nc(C(C)(C)C)cc2NC(=O)Nc2ccc(OCCN3CCOCC3)c3ccccc23)cc1 [doramapimod]
In short: as §1

ispinesib = compound: Cc1ccc(C(=O)N(CCCN)[C@@H](c2nc3cc(Cl)ccc3c(=O)n2Cc2ccccc2)C(C)C)cc1 [ispinesib]
In short: as §1

[8] = compound: Cc1cccc(CC(=O)N2CCc3c2ccc(-c2cn(C)c4ncnc(N)c24)c3F)n1
In short: as §1

[9] = compound: Cn1cc(-c2ccc3nnc(C(F)(F)c4ccc5ncccc5c4)n3n2)cn1
In short: as §1

Measured: log2 fold change

SLC9A8 isoform 2 (UniProt Q9Y2E8)
inactive: [1] 0.028 | [2] 0.02 | [3] -0.102 | duvelisib 0.032 | tozasertib -0.119 | [4] -0.029 | bafetinib -0.017 | nilotinib -0.059 | [5] -0.044 | dasatinib -0.001 | [6] 0.045 | [7] -0.17 | tipifarnib 0.016 | mubritinib -0.04

SMPD1 (UniProt P17405)
inactive: [1] -0.156 | crizotinib -0.365 | duvelisib 0.077 | gandotinib 0.032 | [4] 0.054 | doramapimod 0.216 | ispinesib -0.055 | [8] 0.17 | dasatinib -0.138 | [9] -0.135 | tipifarnib 0.003 | mubritinib 0.09

SNX15 (UniProt Q9NRS6)
inactive: [1] 0.064 | crizotinib 0.002 | [3] 0.153 | gandotinib -0.061 | [4] -0.043 | doramapimod 0.136 | ispinesib -0.132 | bafetinib 0.036 | [8] 0.154 | nilotinib -0.064 | [5] -0.17 | dasatinib 0.206 | [6] 0.002 | [7] -0.046 | [9] 0.086 | tipifarnib 0.067 | mubritinib -0.063

SNTB2 (UniProt Q13425)
inactive: [1] 0.051 | [2] 0.046 | [3] -0.024 | duvelisib 0.131 | gandotinib -0.029 | tozasertib -0.061 | [4] 0.222 | ispinesib -0.324 | bafetinib 0.097 | [8] -0.061 | nilotinib -0.032 | [5] -0.094 | dasatinib -0.029 | [6] -0.068 | [7] 0.096 | [9] 0.043 | tipifarnib 0.077

SNX30 (UniProt Q5VWJ9)
inactive: [1] 0.169 | [2] -0.058

SNAP23 isoform 2 (UniProt O00161)
inactive: [1] 0.24 | crizotinib 0.153 | [2] -0.126 | duvelisib -0.067 | tozasertib -0.218 | [4] 0.26 | doramapimod -0.181 | dasatinib 0.096 | tipifarnib 0.084 | mubritinib 0.036

SMARCB1 (UniProt Q12824)
inactive: [1] 0.024 | crizotinib -0.128 | [3] 0.284 | gandotinib 0.49 | [4] 0.097 | doramapimod 0.049 | [8] -0.277 | dasatinib -0.059 | [7] -0.122

SNX2 (UniProt O60749)
inactive: [1] -0.034 | crizotinib -0.223 | [2] 0.006 | [3] -0.039 | gandotinib -0.216 | [4] 0.041 | doramapimod -0.014 | ispinesib -0.184 | bafetinib -0.153 | [8] 0.088 | nilotinib -0.168 | [5] 0 | dasatinib -0.134 | [6] -0.275 | [7] 0.101 | [9] 0.021 | tipifarnib -0.056 | mubritinib 0.044

SOX5 (UniProt P35711)
inactive: [1] 0.07 | crizotinib 0.046 | [3] 0.041 | doramapimod 0.054 | ispinesib 0.004 | bafetinib -0.06 | [5] -0.011 | [6] 0.211 | [7] 0.042 | [9] -0.039 | tipifarnib 0.027 | mubritinib 0.064
active: nilotinib -0.437

SMG6 (UniProt Q86US8)
inactive: [1] 0.003 | [2] 0.073 | [3] 0.615 | duvelisib 0.093 | tozasertib -0.027 | [4] 0.766 | bafetinib -0.056 | nilotinib -0.017 | [5] 0.025 | dasatinib -0.027 | [6] -0.148 | [7] -0.031

SMARCA2 (UniProt P51531)
inactive: gandotinib -0.225 | ispinesib -0.027 | bafetinib 0.105 | [8] 0.015 | nilotinib -0.007 | [5] -0.054 | [6] -0.049 | [9] 0.112 | mubritinib 0.057

SOX7 isoform 2 (UniProt Q9BT81)
inactive: crizotinib -0.121 | [2] -0.116 | [3] 0.61 | duvelisib -0.271 | gandotinib 0.173 | tozasertib 0.087 | [4] 0.009 | doramapimod 0.285 | ispinesib -0.291 | bafetinib 0.092 | [8] 0 | nilotinib -0.066 | [5] 0.362 | dasatinib 0.181 | [6] 0.135 | [7] -0.244 | [9] -0.164 | tipifarnib 0.145 | mubritinib -0.159

SNRPN isoform 2 (UniProt P63162)
inactive: crizotinib 0.174 | gandotinib 0.242 | doramapimod -0.023 | ispinesib 0.243 | [8] -0.139 | [9] -0.345 | tipifarnib 0.279

SNRPD2 (UniProt K7EJB5)
inactive: crizotinib 0 | [3] 0.191 | duvelisib 0.059 | gandotinib -0.09 | tozasertib -0.102 | [4] -0.117 | doramapimod 0.081 | ispinesib -0.348 | bafetinib 0.105 | [8] -0.254 | nilotinib -0.136 | [5] 0.13 | dasatinib 0.134 | [6] 0.037 | [7] -0.147 | [9] 0.067 | tipifarnib 0.12 | mubritinib -0.007

SLC8B1 (UniProt Q6J4K2)
active: crizotinib -0.793 | ispinesib -0.477
inactive: [3] 0.129 | gandotinib -0.053 | [4] -0.073 | doramapimod 0.046 | bafetinib -0.149 | [8] 0.006 | dasatinib -0.012 | [7] -0.019 | [9] 0.103 | tipifarnib 0.058

SMIM4 (UniProt Q8WVI0)
inactive: crizotinib 0.063 | [2] -0.093 | [3] -0.056 | duvelisib -0.031 | tozasertib 0.07 | [4] -0.143 | doramapimod -0.055 | bafetinib 0.025 | nilotinib -0.056 | [5] 0.043 | dasatinib -0.229 | [6] 0.028 | [7] 0.024 | tipifarnib 0.004 | mubritinib -0.006

2 records picked at random from those above:
SNTB2 (UniProt Q13425)
inactive: [1] 0.051 | [2] 0.046 | [3] -0.024 | duvelisib 0.131 | gandotinib -0.029 | tozasertib -0.061 | [4] 0.222 | ispinesib -0.324 | bafetinib 0.097 | [8] -0.061 | nilotinib -0.032 | [5] -0.094 | dasatinib -0.029 | [6] -0.068 | [7] 0.096 | [9] 0.043 | tipifarnib 0.077

SNX30 (UniProt Q5VWJ9)
inactive: [1] 0.169 | [2] -0.058

Next part.

SNAP47 (UniProt Q5SQN1)
inactive: [2] 0.1

SMIM19 (UniProt Q96E16)
inactive: duvelisib 0.268 | tozasertib -0.211 | [4] -0.216 | ispinesib 0.094 | dasatinib 0.302 | [9] 0.137 | tipifarnib -0.089

SMTN isoform 6 (UniProt P53814)
inactive: [1] -0.346 | [2] -0.014 | tozasertib 0.115 | tipifarnib 0.152

SLC9A6 isoform 3 (UniProt Q92581)
inactive: [3] -0.018 | [4] -0.137 | bafetinib -0.096 | dasatinib 0.065 | [7] 0.048 | tipifarnib 0.028

SMIM29 (UniProt Q86T20)
inactive: [1] 0.108 | [3] 0.128 | duvelisib 0.01 | [4] -0.219 | dasatinib 0.225 | [7] -0.133

SOD3 (UniProt P08294)
inactive: [1] 0.109 | [3] 0.013 | duvelisib 0.067 | gandotinib -0.024 | tozasertib -0.033 | [4] -0.065 | [8] 0.008 | dasatinib 0.02 | [7] -0.075 | tipifarnib 0.043 | mubritinib 0.151

SLX4IP (UniProt Q5VYV7)
inactive: tipifarnib -0.194

SOX6 (UniProt P35712)
inactive: [3] -0.124 | ispinesib 0.039 | [7] 0.006 | [9] -0.15 | tipifarnib 0.015 | mubritinib 0.097

SMARCD2 (UniProt Q92925)
inactive: crizotinib 0.02 | [3] 0.157 | gandotinib -0.088 | tozasertib 0.29 | doramapimod 0.048 | [8] 0.118 | [7] 0.05 | tipifarnib 0.077 | mubritinib -0.025

SMU1 isoform 2 (UniProt Q2TAY7)
inactive: crizotinib -0.129 | doramapimod 0.243 | bafetinib 0.185

SMARCD1 (UniProt Q96GM5)
inactive: mubritinib 0.146

SMUG1 (UniProt Q53HV7)
inactive: [1] -0.09 | nilotinib 0.057 | [5] 0.045 | [6] -0.359 | mubritinib -0.042

SLPI (UniProt P03973)
inactive: crizotinib 1.43 | doramapimod -0.203 | ispinesib -0.109 | [9] 0.106
